Results: the supplement of paper PMC7877785
± gives the uncertainty stated by the source. Many of these values have a large error.

Assay: self-splicing fitness, log relative to wild type (ln ratio); higher = more splicing; Tetrahymena group I intron in knt gene, E. coli kanamycin selection, DiMSum; sequences stand for … in CUCUCU…GGAGGGAAAAGUUAUCAGGCAUGCACCUGGUAGCUAGUCUUUAAACCAAUAGAUUGCAUCGGUUUAAAAGGCAAGACCGUCAAAUUGCGGGAAAGGGGUCAACAGCCGUUCAGUACCAAGUCUCAGGGGAAACUUUGAGAUGGCCUUGCAAAGGGUAUGGUAAUAAGCUGACGGACAUGGUCCUAACCACGCAGCCAAGUCCUAAGUCAACAGAUCUUCUGUUGAUAUGGAUGCAGUUCACAGACUAAAUGUCGGUCGGGGAAGAUGUAUUCUUCUCAUAAGAUAUAGUCGGACCUCUCCUUAAUGGGAGCUAGCGGAUGAAGUGAUGCAACACUGGAGCCGCUGGGAACUAAUUUGUAUGCGAAAGUAUAUUGAUUAGUUUUGGAGUACUCGUGGUCG
Outline: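 The eight P1ex-region nucleotides of an intron in the knt kanamycin-resistance gene on pET-22b(+) were all randomised and the library put into E. coli BL21(DE3). Six replicate transformations were grown overnight at 37°C or 30°C on LB agar with or without 25 μg/mL kanamycin, together with 100 μg/mL carbenicillin, 50 μM IPTG and 0.2% rhamnose. Colonies were pooled and amplicon-sequenced on an Illumina HiSeq 2500. Fitness from DiMSum is the error-weighted combination of wild-type-normalised replicate fold changes, kanamycin over none.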

| Sequence | self-splicing fitness (ln) (30 °C) | self-splicing fitness (ln) (37 °C) |
| --- | --- | --- |
| UAGGAGCAAUAUUACGCCAG | -2.77 ± 0.78 | -1.74 ± 0.58 |
| CAUGAGCAAUAUUACGAACA | -3.38 ± 0.54 | – |
| CUCUAGCAAUAUUACGCCGA | -3.42 ± 1 | -2.96 ± 0.75 |
| UGAUAGCAAUAUUACGACAA | -2.42 ± 0.81 | – |
| CAACAGCAAUAUUACGUCUA | -1.06 ± 0.053 | -0.786 ± 0.055 |
| ACUGAGCAAUAUUACGGAUC | -4.37 ± 1 | – |
| UAUGAGCAAUAUUACGCAAA | – | -1.91 ± 0.52 |
| GUCUAGCAAUAUUACGAAAG | -4.11 ± 0.6 | – |
| GGUGAGCAAUAUUACGAAGG | -3.59 ± 0.6 | – |
| AUUGAGCAAUAUUACGUAUC | – | -2.32 ± 0.78 |
| CUGUAGCAAUAUUACGACCU | -2.45 ± 0.72 | -0.0717 ± 0.66 |
| CUAAAGCAAUAUUACGAAGC | -4.76 ± 0.59 | – |
| CCGGAGCAAUAUUACGGUCC | – | -0.527 ± 0.56 |
| UUCUAGCAAUAUUACGAAAC | – | -1.64 ± 0.67 |
| CCUUAGCAAUAUUACGCGGU | – | -2.92 ± 0.61 |
| CUCUAGCAAUAUUACGAGAC | – | -1.17 ± 0.26 |
| GAGGAGCAAUAUUACGGCCG | -2.56 ± 0.63 | – |
| UUCAAGCAAUAUUACGUAUU | -3.82 ± 0.17 | -2.66 ± 0.16 |
| CCAGAGCAAUAUUACGCGGG | – | -1 ± 0.92 |
| GCGGAGCAAUAUUACGCCGU | – | -2.7 ± 0.77 |
| UAUUAGCAAUAUUACGAGCG | -0.705 ± 0.11 | -0.219 ± 0.15 |
| CCUUAGCAAUAUUACGAAAA | -2.2 ± 0.84 | -3.08 ± 0.74 |
| GACGAGCAAUAUUACGAGAU | – | -2.81 ± 0.61 |
| GGGAAGCAAUAUUACGAGCC | -1.74 ± 0.87 | 0.917 ± 1.1 |
| UGGAAGCAAUAUUACGCUUC | -2.48 ± 1.1 | -2.07 ± 0.65 |

| Sequence | self-splicing fitness (ln) (30 °C) | self-splicing fitness (ln) (37 °C) |
| --- | --- | --- |
| GAACAGCAAUAUUACGACGA | -0.494 ± 0.085 | 0.265 ± 0.097 |
| AGACAGCAAUAUUACGAAGC | -4.09 ± 1 | – |
| GUCUAGCAAUAUUACGGGAC | -1.65 ± 0.54 | – |
| CCCUAGCAAUAUUACGACGG | -2.7 ± 0.14 | -2.87 ± 0.34 |
| UCAAAGCAAUAUUACGGUUG | -1.38 ± 0.086 | -0.732 ± 0.12 |
| CGAGAGCAAUAUUACGACAA | – | -3.17 ± 1 |
| GCGAAGCAAUAUUACGUCAC | -4.72 ± 0.51 | – |
| UUGUAGCAAUAUUACGUUAC | -3.84 ± 0.54 | – |
| UAGGAGCAAUAUUACGUAUA | -2.34 ± 0.21 | -0.936 ± 0.17 |
| UCUGAGCAAUAUUACGCUCC | – | -2.13 ± 0.58 |
| CGUUAGCAAUAUUACGCUAU | – | -0.681 ± 1.4 |
| CUUGAGCAAUAUUACGGAAA | -1.37 ± 0.6 | -2.99 ± 0.6 |
| CGCCAGCAAUAUUACGCUCU | -1.6 ± 0.081 | -1.06 ± 0.097 |
| GCUGAGCAAUAUUACGACAG | – | -1.88 ± 0.67 |
| AGAGAGCAAUAUUACGUCCA | -3.28 ± 0.74 | -1.21 ± 0.76 |
| UUUGAGCAAUAUUACGUUAG | -3.12 ± 1.1 | – |
| GUCAAGCAAUAUUACGGAGC | – | -0.707 ± 0.78 |
| AACCAGCAAUAUUACGCCGG | -3.39 ± 0.17 | -2.09 ± 0.17 |
| UACGAGCAAUAUUACGAGAA | – | -1.83 ± 1.1 |
| UUUGAGCAAUAUUACGCUCU | -1.78 ± 0.84 | -1.15 ± 0.63 |
| UGAGAGCAAUAUUACGACUG | -2.92 ± 0.55 | -1.27 ± 0.68 |
| AUGCAGCAAUAUUACGUGAA | -2.44 ± 0.12 | -0.683 ± 0.13 |
| CGGUAGCAAUAUUACGCUCC | – | -2.33 ± 0.55 |
| ACGGAGCAAUAUUACGCCUU | -3.46 ± 0.6 | -2.72 ± 0.75 |
| CGAGAGCAAUAUUACGCUUU | -4.33 ± 1 | – |

Taken from the entries so far for reference:

| Sequence | self-splicing fitness (ln) (30 °C) | self-splicing fitness (ln) (37 °C) |
| --- | --- | --- |
| UCAAAGCAAUAUUACGGUUG | -1.38 ± 0.086 | -0.732 ± 0.12 |
| CGAGAGCAAUAUUACGACAA | – | -3.17 ± 1 |
| GCGAAGCAAUAUUACGUCAC | -4.72 ± 0.51 | – |

Given comma-delimited: part of the list above.
Sequence,self-splicing fitness (ln) (30 °C),self-splicing fitness (ln) (37 °C)
UAGGAGCAAUAUUACGCCAG,-2.77 ± 0.78,-1.74 ± 0.58
CCGGAGCAAUAUUACGGUCC,–,-0.527 ± 0.56
CCUUAGCAAUAUUACGCGGU,–,-2.92 ± 0.61

(cont.)

| Sequence | self-splicing fitness (ln) (30 °C) | self-splicing fitness (ln) (37 °C) |
| --- | --- | --- |
| CCUAAGCAAUAUUACGUGCC | – | -2.12 ± 0.61 |
| CAAAAGCAAUAUUACGCCCC | – | -1.99 ± 0.67 |
| UCGAAGCAAUAUUACGGCCC | – | -2.27 ± 0.63 |
| ACAUAGCAAUAUUACGGUUC | -2.93 ± 0.17 | -2.51 ± 0.24 |
| CCCGAGCAAUAUUACGACCA | -2.24 ± 0.59 | – |
| UGGAAGCAAUAUUACGCAUG | -1.02 ± 0.096 | -0.486 ± 0.12 |
| CCAAAGCAAUAUUACGAAAA | -1.93 ± 0.17 | -2.85 ± 0.32 |
| GGUCAGCAAUAUUACGUAUC | -0.892 ± 0.078 | -0.138 ± 0.1 |
| ACUCAGCAAUAUUACGAUCU | -0.0985 ± 0.064 | 0.407 ± 0.08 |
| AAUCAGCAAUAUUACGCAAC | -1.32 ± 0.11 | -0.666 ± 0.13 |
| CAAUAGCAAUAUUACGACCA | -2.36 ± 0.78 | – |
| UAUGAGCAAUAUUACGACUU | – | -2.37 ± 0.56 |
| CCGUAGCAAUAUUACGACAC | – | -3.34 ± 0.52 |
| GCCAAGCAAUAUUACGCCAC | -3.98 ± 0.73 | – |
| GCUCAGCAAUAUUACGAGUC | – | -2.48 ± 0.77 |
| UAGGAGCAAUAUUACGCUCU | -3.83 ± 1 | – |
| CCGAAGCAAUAUUACGAAGA | – | -2.87 ± 1 |
| CGGUAGCAAUAUUACGGGGC | -4.13 ± 0.61 | -2.39 ± 0.34 |
| UAUUAGCAAUAUUACGGAUA | -1.86 ± 0.78 | – |
| CUAUAGCAAUAUUACGAAGC | -3.98 ± 0.73 | -2.77 ± 0.75 |
| CUAGAGCAAUAUUACGGUCU | -5.46 ± 0.71 | – |
| GUAUAGCAAUAUUACGCGAC | – | -2.34 ± 0.77 |
| GUCAAGCAAUAUUACGAAGA | – | -4.69 ± 1 |
| CGAUAGCAAUAUUACGAAGA | -3.8 ± 1 | – |
| GGCGAGCAAUAUUACGGGAU | -4.17 ± 0.74 | – |

| Sequence | self-splicing fitness (ln) (30 °C) | self-splicing fitness (ln) (37 °C) |
| --- | --- | --- |
| AGUGAGCAAUAUUACGCUUA | -4.87 ± 1 | – |
| UUAGAGCAAUAUUACGAAUA | -2.32 ± 0.66 | – |
| CAUUAGCAAUAUUACGUAUG | -3.57 ± 0.2 | -2.9 ± 0.3 |
| UACGAGCAAUAUUACGAAGC | -2.71 ± 0.35 | -0.927 ± 0.34 |
| AAAUAGCAAUAUUACGUGAC | -1.53 ± 0.2 | -3.22 ± 0.61 |
| CCAAAGCAAUAUUACGGCGG | -3.8 ± 0.15 | -2.48 ± 0.16 |
| GUGAAGCAAUAUUACGUACC | – | 0.326 ± 0.69 |
| CGGUAGCAAUAUUACGCAAU | -4.53 ± 0.51 | – |
| AGCUAGCAAUAUUACGGUCU | -0.425 ± 0.068 | 0.136 ± 0.088 |
| UACAAGCAAUAUUACGCCCC | – | -2.82 ± 0.62 |
| UGAAAGCAAUAUUACGCGUU | -3.19 ± 0.19 | -3.1 ± 0.29 |
| CCCAAGCAAUAUUACGCGCC | -3.47 ± 1 | – |
| GGGUAGCAAUAUUACGUCAC | – | -1.43 ± 0.57 |
| CAAGAGCAAUAUUACGAAAA | -2.13 ± 0.65 | – |
| GUGGAGCAAUAUUACGACCG | – | -1.8 ± 0.67 |
| CCCGAGCAAUAUUACGAACU | -4 ± 1 | – |
| AACGAGCAAUAUUACGAAAA | -3.39 ± 1 | -1.18 ± 0.92 |
| UGAGAGCAAUAUUACGUCAU | – | -2.07 ± 0.79 |
| GAACAGCAAUAUUACGCCGC | -4.77 ± 0.72 | – |
| UCUCAGCAAUAUUACGACCG | -0.974 ± 0.59 | – |
| UAGAAGCAAUAUUACGCCCA | -0.128 ± 0.15 | 0.21 ± 0.25 |
| GGAUAGCAAUAUUACGGUAG | -4.26 ± 0.59 | – |
| UCAGAGCAAUAUUACGUAAC | – | -2.94 ± 0.75 |
| UUAGAGCAAUAUUACGCUGC | -4.16 ± 1 | – |
| CCCUAGCAAUAUUACGUAUC | -4.76 ± 1 | – |

| Sequence | self-splicing fitness (ln) (30 °C) | self-splicing fitness (ln) (37 °C) |
| --- | --- | --- |
| GUGUAGCAAUAUUACGCGCU | -5.43 ± 1 | – |
| GGAUAGCAAUAUUACGCAAC | -3.48 ± 0.75 | -1.88 ± 0.6 |
| CCUGAGCAAUAUUACGCACC | -4.56 ± 1 | – |
| UUUGAGCAAUAUUACGAGAA | -2.57 ± 0.78 | – |
| GGGAAGCAAUAUUACGGGUG | -2.68 ± 0.13 | -2.12 ± 0.18 |
| UCGGAGCAAUAUUACGCGAC | -3.31 ± 1 | – |
| CGCUAGCAAUAUUACGUCUU | -4.88 ± 0.51 | – |
| GUAGAGCAAUAUUACGAAAG | – | -1.51 ± 0.59 |
| ACGGAGCAAUAUUACGUAGG | – | -2.69 ± 0.53 |
| GCGAAGCAAUAUUACGUUUC | – | -4.45 ± 0.72 |
| UGGGAGCAAUAUUACGAGUU | -3.49 ± 0.52 | -2.29 ± 0.78 |
| UGGCAGCAAUAUUACGACGC | -4.78 ± 0.58 | – |
| UCAGAGCAAUAUUACGACAA | -2.11 ± 0.8 | – |
| UUUAAGCAAUAUUACGAAAC | -3.68 ± 0.61 | – |
| CUACAGCAAUAUUACGCUUC | -4.57 ± 0.51 | – |
| GGAGAGCAAUAUUACGGAGA | – | -2.09 ± 0.51 |
| CUGUAGCAAUAUUACGCCAA | -1.54 ± 0.71 | – |
| CAGAAGCAAUAUUACGAUCU | -1.88 ± 0.12 | -0.995 ± 0.1 |
| GAUGAGCAAUAUUACGAUUC | – | -1.88 ± 1.2 |
| UCGCAGCAAUAUUACGCAAC | -4.48 ± 0.52 | – |
| GUUCAGCAAUAUUACGGGCA | -2.05 ± 0.6 | -1.11 ± 0.34 |
| CGGGAGCAAUAUUACGAACC | -2.09 ± 1.4 | 0.807 ± 0.64 |
